This data set concerns HEK293T cells. Description: Surface immunofluorescence (Flag antibody) of OR constructs in live non-permeabilized cells. In kind it is cell-based. Set-up: key to Trafficking (surface expression) of Flag-tagged OR / Trafficking (surface expression) of Flag-tagged Rho-OR: −: No detectable OR surface expression; +: OR surface expression detected in the majority of fields of view (>90% of all fields of view); *: OR surface expression detected in a minority of fields of view (<50% of all fields of view). The conditions noted are these: for Trafficking (surface expression) of Flag-tagged OR: OR without Rho or Lucy tag.

B1: hOR52B2: human homologue of Olfr691, Flag-tagged olfactory receptor construct (protein, UniProt Q96RD2 1-323, looked up)
Olfactory receptor 52B2: MSHTNVTIFHPAVFVLPGIPGLEAYHIWLSIPLCLIYITAVLGNSILIVVIVMERNLHVPMYFFLSMLAVMDILLSTTTVPKALAIFWLQAHNIAFDACVTQGFFVHMMFVGESAILLAMAFDRFVAICAPLRYTTVLTWPVVGRIALAVITRSFCIIFPVIFLLKRLPFCLTNIVPHSYCEHIGVARLACADITVNIWYGFSVPIVMVILDVILIAVSYSLILRAVFRLPSQDARHKALSTCGSHLCVILMFYVPSFFTLLTHHFGRNIPQHVHILLANLYVAVPPMLNPIVYGVKTKQIREGVAHRFFDIKTWCCTSPLGS
modifications: Flag tag
notes: human homologue of Olfr691, Flag-tagged olfactory receptor construct
As to B1, for the setting “chaperones RTP1S, Ric8b, Gαolf”, the “Trafficking (surface expression) of Flag-tagged Lucy-OR” value (shortened to “Trafficking … of Flag-tagged Lucy-OR”) is recorded as “+ (OR surface expression detected in the majority of fields of view (>90% of all fields of view))”, the “Trafficking (surface expression) of Flag-tagged Lucy-Rho-OR” value (“Trafficking … of Flag-tagged Lucy-Rho-OR” below) is “+ (OR surface expression detected in the majority of fields of view (>90% of all fields of view))”, the “Trafficking (surface expression) of Flag-tagged OR” value (from here on “Trafficking … of Flag-tagged OR”) is on record as “−” and the “Trafficking (surface expression) of Flag-tagged Rho-OR” value (from here on “Trafficking … of Flag-tagged Rho-OR”) is listed as “−”. Moreover, for the setting “chaperones: None”, the “Trafficking … of Flag-tagged Lucy-OR” value was “+ (OR surface expression detected in the majority of fields of view (>90% of all fields of view))”, the “Trafficking … of Flag-tagged Lucy-Rho-OR” value is recorded as “+ (OR surface expression detected in the majority of fields of view (>90% of all fields of view))”, the “Trafficking … of Flag-tagged OR” value is on record as “−” and the “Trafficking … of Flag-tagged Rho-OR” value is “−”.

B2: hOR51E2: human olfactory receptor OR51E2, Flag-tagged construct (protein, UniProt Q9H255 1-320, looked up)
Olfactory receptor 51E2: MSSCNFTHATFVLIGIPGLEKAHFWVGFPLLSMYVVAMFGNCIVVFIVRTERSLHAPMYLFLCMLAAIDLALSTSTMPKILALFWFDSREISFEACLTQMFFIHALSAIESTILLAMAFDRYVAICHPLRHAAVLNNTVTAQIGIVAVVRGSLFFFPLPLLIKRLAFCHSNVLSHSYCVHQDVMKLAYADTLPNVVYGLTAILLVMGVDVMFISLSYFLIIRTVLQLPSKSERAKAFGTCVSHIGVVLAFYVPLIGLSVVHRFGNSLHPIVRVVMGDIYLLLPPVINPIIYGAKTKQIRTRVLAMFKISCDKDLQAVGGK
modifications: Flag tag
notes: human olfactory receptor OR51E2, Flag-tagged construct
Turning to B2, for the setting “chaperones RTP1S, Ric8b, Gαolf”, the “Trafficking … of Flag-tagged Lucy-OR” value is listed as “+ (OR surface expression detected in the majority of fields of view (>90% of all fields of view))”, the “Trafficking … of Flag-tagged Lucy-Rho-OR” value is given as “+ (OR surface expression detected in the majority of fields of view (>90% of all fields of view))”, the “Trafficking … of Flag-tagged OR” value is reported as “+ (OR surface expression detected in the majority of fields of view (>90% of all fields of view))” and the “Trafficking … of Flag-tagged Rho-OR” value was “+ (OR surface expression detected in the majority of fields of view (>90% of all fields of view))”. Besides, for the setting “chaperones: None”, the “Trafficking … of Flag-tagged Lucy-OR” value is recorded as “+ (OR surface expression detected in the majority of fields of view (>90% of all fields of view))”, the “Trafficking … of Flag-tagged Lucy-Rho-OR” value is “+ (OR surface expression detected in the majority of fields of view (>90% of all fields of view))”, the “Trafficking … of Flag-tagged OR” value is “+ (OR surface expression detected in the majority of fields of view (>90% of all fields of view))” and the “Trafficking … of Flag-tagged Rho-OR” value was “+ (OR surface expression detected in the majority of fields of view (>90% of all fields of view))”.

These data come from patent US20150087053A1, “COMPOSITIONS AND METHODS FOR INCREASING THE EXPRESSION AND SIGNALLING OF PROTEINS ON CELL SURFACES” (THE JOHNS HOPKINS UNIVERSITY, priority 2013, published 2015).
